Here are results for two substances from paper PMC12291482.

Chains of the proteins cited; added tags and fusions are not shown. Residues count along the entry.
UniProt P13612, residues 34-1032: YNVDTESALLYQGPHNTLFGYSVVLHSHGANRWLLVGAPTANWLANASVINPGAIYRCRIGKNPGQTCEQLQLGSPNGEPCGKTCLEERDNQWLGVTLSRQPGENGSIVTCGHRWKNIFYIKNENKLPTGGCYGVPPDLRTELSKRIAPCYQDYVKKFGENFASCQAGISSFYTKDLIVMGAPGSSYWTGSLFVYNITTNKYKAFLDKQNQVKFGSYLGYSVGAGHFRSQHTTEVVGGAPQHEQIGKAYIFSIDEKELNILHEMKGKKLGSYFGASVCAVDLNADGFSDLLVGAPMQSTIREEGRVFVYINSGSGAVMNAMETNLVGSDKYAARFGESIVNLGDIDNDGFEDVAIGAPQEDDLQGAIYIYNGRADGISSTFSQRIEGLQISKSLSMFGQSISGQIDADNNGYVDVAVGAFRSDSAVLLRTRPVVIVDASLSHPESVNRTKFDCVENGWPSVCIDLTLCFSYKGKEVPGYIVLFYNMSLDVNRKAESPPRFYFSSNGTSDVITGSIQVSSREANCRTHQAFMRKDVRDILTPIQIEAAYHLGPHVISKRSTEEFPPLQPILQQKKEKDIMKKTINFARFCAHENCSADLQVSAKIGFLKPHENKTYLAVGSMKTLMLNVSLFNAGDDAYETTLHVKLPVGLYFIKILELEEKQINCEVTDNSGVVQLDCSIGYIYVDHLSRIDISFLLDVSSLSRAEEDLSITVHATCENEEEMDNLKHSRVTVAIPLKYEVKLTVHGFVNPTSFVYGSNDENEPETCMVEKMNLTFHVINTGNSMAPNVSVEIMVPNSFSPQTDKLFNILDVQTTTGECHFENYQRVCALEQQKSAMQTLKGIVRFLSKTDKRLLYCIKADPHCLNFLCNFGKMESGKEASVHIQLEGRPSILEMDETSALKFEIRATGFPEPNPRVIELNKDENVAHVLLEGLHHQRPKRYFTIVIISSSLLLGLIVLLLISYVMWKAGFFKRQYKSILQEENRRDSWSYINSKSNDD

Results are given in words; binding and its absence hold for the method and conditions named. Binding seen in cells or lysates may run through a third protein. A yes stands for co-enrichment or nearness to the bait. Other partners may have been found.

The target of the assay is T1, Melanoma cell adhesion molecule (MCAM) (UniProt P43121).
T1 sequence: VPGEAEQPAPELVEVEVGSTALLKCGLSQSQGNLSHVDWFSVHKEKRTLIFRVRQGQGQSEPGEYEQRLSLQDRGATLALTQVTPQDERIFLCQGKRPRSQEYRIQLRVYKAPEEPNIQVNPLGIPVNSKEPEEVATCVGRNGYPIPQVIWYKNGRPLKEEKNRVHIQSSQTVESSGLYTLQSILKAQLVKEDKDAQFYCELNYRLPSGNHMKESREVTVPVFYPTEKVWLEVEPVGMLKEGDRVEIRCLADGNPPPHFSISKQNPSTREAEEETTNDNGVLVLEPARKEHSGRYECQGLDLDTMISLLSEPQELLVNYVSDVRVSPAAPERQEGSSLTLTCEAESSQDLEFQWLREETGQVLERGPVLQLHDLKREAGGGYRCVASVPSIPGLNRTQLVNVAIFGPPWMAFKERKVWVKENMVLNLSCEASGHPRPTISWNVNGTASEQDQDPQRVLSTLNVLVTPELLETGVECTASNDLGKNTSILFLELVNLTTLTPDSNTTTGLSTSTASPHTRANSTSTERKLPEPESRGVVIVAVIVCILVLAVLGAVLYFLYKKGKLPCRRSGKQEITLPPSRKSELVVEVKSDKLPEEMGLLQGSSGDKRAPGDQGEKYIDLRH
As to the kind of experiment: affinity purification with mass spectrometry; immunoprecipitation coupled with mass spectrometry (IP/MS) of MCAM from MCAM-overexpressing HCC827 cells.

“integrin α4 (from UniProt P13612 34-1032)”: the binding result is on record as “binds”.
Consider “integrin α6 (human (endogenous in HCC827))”, for which the binding result is listed as “binds”.
